Data published in patent US9796714B2, “Calcium channel agonists” (University of Pittsburgh—Of the Commonwealth System of …, priority 2013, dated 2017).

Sequences of proteins named here, by UniProt entry; tags and fusion partners are left off.
UniProt Q02294, whole entry: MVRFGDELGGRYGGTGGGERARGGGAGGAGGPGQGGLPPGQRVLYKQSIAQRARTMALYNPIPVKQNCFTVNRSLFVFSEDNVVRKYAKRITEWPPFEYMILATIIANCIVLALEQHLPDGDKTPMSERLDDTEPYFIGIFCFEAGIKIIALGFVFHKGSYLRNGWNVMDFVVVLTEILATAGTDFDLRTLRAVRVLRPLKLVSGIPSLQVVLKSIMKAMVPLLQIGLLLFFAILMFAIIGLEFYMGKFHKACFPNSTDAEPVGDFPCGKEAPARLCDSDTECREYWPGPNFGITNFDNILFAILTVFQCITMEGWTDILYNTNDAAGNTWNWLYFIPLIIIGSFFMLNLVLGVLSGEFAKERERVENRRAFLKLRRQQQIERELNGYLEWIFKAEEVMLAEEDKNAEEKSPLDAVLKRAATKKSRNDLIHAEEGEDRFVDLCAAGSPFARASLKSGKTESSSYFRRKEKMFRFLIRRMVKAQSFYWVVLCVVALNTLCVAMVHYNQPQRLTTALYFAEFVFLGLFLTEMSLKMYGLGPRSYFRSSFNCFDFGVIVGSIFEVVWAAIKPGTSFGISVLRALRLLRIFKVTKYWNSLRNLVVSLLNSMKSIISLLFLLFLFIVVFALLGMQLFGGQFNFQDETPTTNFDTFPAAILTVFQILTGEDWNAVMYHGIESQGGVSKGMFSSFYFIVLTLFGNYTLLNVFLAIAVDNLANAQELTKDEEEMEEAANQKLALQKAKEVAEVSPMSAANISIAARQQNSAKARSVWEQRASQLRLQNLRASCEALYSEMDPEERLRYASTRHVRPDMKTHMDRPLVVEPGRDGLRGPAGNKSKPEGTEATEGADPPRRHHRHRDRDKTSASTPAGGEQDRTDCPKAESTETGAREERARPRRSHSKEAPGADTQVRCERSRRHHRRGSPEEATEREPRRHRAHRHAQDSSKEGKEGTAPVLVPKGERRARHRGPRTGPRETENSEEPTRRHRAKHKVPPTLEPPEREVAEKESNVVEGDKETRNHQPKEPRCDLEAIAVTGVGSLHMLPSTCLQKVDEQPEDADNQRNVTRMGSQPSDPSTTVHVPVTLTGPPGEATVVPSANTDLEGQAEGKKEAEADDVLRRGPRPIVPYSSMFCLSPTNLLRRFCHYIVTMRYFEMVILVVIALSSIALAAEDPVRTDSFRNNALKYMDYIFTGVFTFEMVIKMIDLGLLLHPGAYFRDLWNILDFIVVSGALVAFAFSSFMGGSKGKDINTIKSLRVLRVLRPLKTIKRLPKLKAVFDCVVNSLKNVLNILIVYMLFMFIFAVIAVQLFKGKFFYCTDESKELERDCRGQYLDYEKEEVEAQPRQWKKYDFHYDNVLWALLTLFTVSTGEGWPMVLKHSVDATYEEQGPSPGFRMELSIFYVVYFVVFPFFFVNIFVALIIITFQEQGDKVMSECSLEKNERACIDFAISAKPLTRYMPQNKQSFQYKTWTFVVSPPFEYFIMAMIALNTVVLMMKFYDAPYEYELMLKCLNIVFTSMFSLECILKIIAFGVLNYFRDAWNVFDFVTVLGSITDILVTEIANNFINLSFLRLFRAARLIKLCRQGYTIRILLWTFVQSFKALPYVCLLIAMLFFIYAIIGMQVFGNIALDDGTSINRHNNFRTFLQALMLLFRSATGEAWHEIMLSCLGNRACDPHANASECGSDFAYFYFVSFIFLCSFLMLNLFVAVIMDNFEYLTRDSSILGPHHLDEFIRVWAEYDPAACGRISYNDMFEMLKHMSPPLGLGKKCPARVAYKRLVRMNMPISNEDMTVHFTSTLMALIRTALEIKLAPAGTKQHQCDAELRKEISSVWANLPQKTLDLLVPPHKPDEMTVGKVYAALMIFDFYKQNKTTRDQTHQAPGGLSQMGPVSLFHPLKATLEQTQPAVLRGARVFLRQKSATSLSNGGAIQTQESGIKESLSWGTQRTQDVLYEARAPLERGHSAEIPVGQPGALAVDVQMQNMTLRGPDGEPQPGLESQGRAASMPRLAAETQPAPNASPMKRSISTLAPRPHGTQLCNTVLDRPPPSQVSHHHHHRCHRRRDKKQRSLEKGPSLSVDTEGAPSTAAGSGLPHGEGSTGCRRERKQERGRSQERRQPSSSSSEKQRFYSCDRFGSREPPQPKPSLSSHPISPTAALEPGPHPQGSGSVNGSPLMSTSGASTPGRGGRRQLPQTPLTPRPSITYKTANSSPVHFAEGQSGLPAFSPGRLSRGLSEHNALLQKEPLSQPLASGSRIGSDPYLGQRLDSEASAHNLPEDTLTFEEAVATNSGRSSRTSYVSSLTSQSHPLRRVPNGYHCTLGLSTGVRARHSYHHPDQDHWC
UniProt P27732, whole entry: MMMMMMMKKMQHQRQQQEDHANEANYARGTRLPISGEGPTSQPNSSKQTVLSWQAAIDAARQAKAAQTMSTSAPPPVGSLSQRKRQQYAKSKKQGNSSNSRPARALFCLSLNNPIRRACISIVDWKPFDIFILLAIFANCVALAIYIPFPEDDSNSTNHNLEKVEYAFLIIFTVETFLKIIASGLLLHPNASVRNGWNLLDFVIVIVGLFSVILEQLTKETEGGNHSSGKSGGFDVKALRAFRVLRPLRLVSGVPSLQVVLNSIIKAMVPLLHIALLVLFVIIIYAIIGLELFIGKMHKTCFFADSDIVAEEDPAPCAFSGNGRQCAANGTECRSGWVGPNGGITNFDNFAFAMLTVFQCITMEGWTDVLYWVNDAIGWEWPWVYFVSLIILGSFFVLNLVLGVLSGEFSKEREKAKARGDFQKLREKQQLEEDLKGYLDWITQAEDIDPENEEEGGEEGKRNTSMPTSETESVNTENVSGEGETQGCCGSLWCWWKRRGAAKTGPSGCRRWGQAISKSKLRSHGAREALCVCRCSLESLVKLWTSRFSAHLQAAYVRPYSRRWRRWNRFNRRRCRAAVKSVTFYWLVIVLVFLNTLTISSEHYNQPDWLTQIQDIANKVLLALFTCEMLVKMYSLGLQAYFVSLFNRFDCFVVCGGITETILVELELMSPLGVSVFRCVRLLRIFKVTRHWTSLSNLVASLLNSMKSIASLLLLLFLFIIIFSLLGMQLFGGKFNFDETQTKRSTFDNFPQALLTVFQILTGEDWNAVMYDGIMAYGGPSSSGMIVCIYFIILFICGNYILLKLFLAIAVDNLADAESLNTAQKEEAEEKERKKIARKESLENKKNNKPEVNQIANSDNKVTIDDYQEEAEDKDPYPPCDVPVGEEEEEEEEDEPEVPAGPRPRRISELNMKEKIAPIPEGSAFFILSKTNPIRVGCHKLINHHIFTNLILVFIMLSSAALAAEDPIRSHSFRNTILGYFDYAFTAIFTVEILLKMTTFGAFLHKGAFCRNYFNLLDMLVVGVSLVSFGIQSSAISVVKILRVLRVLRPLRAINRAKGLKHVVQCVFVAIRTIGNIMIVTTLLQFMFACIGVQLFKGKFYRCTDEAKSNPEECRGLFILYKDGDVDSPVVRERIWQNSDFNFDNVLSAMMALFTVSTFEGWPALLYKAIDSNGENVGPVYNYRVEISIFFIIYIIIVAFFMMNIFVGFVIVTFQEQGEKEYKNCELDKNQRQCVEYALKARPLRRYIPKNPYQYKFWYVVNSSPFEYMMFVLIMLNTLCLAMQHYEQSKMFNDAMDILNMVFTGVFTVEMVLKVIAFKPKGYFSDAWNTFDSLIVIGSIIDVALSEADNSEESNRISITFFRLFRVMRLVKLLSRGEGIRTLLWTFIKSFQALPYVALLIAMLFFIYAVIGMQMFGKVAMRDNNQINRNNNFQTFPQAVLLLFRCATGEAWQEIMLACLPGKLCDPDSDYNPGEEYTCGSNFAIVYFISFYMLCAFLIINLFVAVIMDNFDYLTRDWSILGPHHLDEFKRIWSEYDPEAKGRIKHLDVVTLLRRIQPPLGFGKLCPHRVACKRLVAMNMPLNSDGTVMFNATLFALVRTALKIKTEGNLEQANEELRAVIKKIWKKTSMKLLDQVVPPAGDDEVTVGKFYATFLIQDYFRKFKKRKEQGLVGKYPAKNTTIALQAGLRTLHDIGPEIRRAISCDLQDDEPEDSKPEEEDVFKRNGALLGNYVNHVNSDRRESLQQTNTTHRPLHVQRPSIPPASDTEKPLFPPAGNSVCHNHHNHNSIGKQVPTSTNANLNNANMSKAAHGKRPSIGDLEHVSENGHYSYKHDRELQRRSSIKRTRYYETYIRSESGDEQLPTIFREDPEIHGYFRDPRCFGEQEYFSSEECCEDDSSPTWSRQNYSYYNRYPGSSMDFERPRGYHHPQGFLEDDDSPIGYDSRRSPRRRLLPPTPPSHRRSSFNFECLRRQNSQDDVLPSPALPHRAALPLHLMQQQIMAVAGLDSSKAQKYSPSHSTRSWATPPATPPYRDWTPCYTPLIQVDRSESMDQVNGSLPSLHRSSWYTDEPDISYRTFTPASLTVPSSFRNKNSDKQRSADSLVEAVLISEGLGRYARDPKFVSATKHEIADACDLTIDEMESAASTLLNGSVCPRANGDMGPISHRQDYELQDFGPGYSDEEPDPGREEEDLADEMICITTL

Assays:
[1] = molecular target: T1, N-type Ca^2+ channel (Cav2.2) (Rattus norvegicus, UniProt Q02294); experiment: N-type Ca2+ channel agonist activity, whole-cell perforated patch clamp of tail currents in tsA201 cells; assay type: cell-based
T1 construct: expressed in transfected cells; later also transient transfection
Protocol: tsA201 cells expressing calcium channels. […] For subsequent evaluation of effects on N-, P/Q-, or L-type channels, tsA-201 cells were transiently transfected with Cav2.2, Cav2.1, or Cav1.3, in combination with Cavβ3 and […] (Addgene, Cambridge Mass.) using FuGENE 6 (Life Technologies, Grand Island, N.Y.). All cells were maintained in DMEM supplemented with 10% fetal bovine serum. For the stable cell line expressing N-type channels, 25 μg/mL zeocin, 5 μg/mL blasticidin, and 25 μg/mL hygromycin were added as selection agents.
Whole-cell patch clamp recordings of calcium current. […] Briefly, the pipette solution consisted of […] Cs2SO4, 60 mM CsCl, 1 mM MgCl2, 10 mM 4-(2-hydroxyethyl)-1-piperazineethanesulfonic acid (HEPES) at pH 7.4. […] Patch pipettes were fabricated from borosilicate glass and pulled to a resistance of about 1 MΩ. Before each experiment, a stock solution consisting of 3 mg amphotericin-B dissolved into 50 μL anhydrous DMSO was made. […] To measure effects on calcium channel tail currents, the tail current integral was measured before and after application of a derivative, with the integral of each trace being normalized to its peak. […]
Statistical Analysis. […] All EC50 and IC50 values and their respective errors were determined by performing 100 iterations of a logistic function curve fit. […]

[2] = molecular target: T2, L-type (Cav 1.3) channels (Rattus norvegicus, UniProt P27732); experiment: L-type Ca2+ channel agonist activity, whole-cell perforated patch clamp in tsA-201 cells; assay type: cell-based
T2 construct: host or cells: tsA-201

Structure (SMILES): CC[C@H](CO)Nc1nc(NCc2ccccc2)c2ncn(C(C)C)c2n1 [(R)-roscovitine, reference compound]
- EC50 ([1]; N-Type Ca^2+ Channel Activity EC50 +/− SEM, whole cell perforated patch clamp, deactivation (tail) currents from N-type channels): 27.6 ± 1.65 µM
- EC50 ([1]; N-type EC50/IC50 affinities, Table 3, calcium channel agonist): 27.6 ± 1.65 µM
- EC50 [2]: > 100 µM
